The values below come from publication PMC9649811.

The target of the assay is heat shock protein 90α (mouse (endogenous in primary BMECs)) (UniProt P07901). In words: co-IP; protein extracted from endothelial cells (BMECs, RIPA lysis buffer with 1% PMSF) incubated with Cav-1, HSP90α or negative control IgG antibody overnight at 4 °C; protein A/G agarose beads 4 h at 4 °C; eluate immunoblotted; the results also mention hypoxic treatment of the cells. For orientation: In western blotting, separated proteins are transferred to a membrane and probed.

These are yes or no findings as the source states them, for the method shown. Binding seen in cells or lysates may run through a third protein. Some binding calls cover weakened binding; strength is not graded here.

B1: Caveolin-1 (protein, UniProt P49817 1-178)
chain: MSGGKYVDSEGHLYTVPIREQGNIYKPNNKAMADEVTEKQVYDAHTKEIDLVNRDPKHLNDDVVKIDFEDVIAEPEGTHSFDGIWKASFTTFTVTKYWFYRLLSTIFGIPMALIWGIYFAILSFLHIWAVVPCIKSFLIEIQCISRVYSIYVHTFCDPLFEAIGKIFSNIRISTQKEI
B1: the binding entry is listed as “binds”.
